In publication PMC5430542:
Substitutions are numbered along the chain they refer to. Results are given in words; binding and its absence hold for the method and conditions named. In cells and extracts the contact can be indirect. Some binding calls cover weakened binding; strength is not graded here. Where a sequence is shown, tags or fusion partners need not be part of it.

By UniProt entry, the sequences of proteins in these tests, tags left out. Where a name states a change or a piece, a line headed by the entry shows the natural chain unless it says otherwise.
UniProt Q05655: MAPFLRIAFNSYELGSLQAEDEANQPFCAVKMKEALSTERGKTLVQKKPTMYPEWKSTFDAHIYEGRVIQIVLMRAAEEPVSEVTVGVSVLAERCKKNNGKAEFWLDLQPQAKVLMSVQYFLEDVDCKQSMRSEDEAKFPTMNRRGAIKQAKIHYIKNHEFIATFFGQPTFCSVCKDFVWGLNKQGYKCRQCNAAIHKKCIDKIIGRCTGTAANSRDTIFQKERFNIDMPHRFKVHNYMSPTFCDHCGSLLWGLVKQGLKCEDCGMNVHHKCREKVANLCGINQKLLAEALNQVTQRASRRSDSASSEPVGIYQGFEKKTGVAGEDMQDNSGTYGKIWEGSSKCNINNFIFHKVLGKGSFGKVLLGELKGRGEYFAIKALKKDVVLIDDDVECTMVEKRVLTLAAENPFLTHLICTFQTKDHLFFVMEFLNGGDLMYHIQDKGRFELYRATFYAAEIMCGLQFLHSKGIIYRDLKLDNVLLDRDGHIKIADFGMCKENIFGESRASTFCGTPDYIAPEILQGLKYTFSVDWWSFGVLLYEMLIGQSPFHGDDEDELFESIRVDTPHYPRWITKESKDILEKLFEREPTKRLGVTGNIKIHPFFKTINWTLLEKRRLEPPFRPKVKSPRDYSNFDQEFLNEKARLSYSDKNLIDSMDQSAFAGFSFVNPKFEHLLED

Legend:
[1] = target: T1, GFP-PKD2 WT (human) (UniProt Q9BZL6); assay: co-IP; GFP-PKD2 (WT or deletion mutants) precipitated with GFP trap (GFP nanobody beads) from lysates of transfected HEK293 cells stimulated with H2O2 (10 mM, 10 min); blot for PKCδ
T1 sequence: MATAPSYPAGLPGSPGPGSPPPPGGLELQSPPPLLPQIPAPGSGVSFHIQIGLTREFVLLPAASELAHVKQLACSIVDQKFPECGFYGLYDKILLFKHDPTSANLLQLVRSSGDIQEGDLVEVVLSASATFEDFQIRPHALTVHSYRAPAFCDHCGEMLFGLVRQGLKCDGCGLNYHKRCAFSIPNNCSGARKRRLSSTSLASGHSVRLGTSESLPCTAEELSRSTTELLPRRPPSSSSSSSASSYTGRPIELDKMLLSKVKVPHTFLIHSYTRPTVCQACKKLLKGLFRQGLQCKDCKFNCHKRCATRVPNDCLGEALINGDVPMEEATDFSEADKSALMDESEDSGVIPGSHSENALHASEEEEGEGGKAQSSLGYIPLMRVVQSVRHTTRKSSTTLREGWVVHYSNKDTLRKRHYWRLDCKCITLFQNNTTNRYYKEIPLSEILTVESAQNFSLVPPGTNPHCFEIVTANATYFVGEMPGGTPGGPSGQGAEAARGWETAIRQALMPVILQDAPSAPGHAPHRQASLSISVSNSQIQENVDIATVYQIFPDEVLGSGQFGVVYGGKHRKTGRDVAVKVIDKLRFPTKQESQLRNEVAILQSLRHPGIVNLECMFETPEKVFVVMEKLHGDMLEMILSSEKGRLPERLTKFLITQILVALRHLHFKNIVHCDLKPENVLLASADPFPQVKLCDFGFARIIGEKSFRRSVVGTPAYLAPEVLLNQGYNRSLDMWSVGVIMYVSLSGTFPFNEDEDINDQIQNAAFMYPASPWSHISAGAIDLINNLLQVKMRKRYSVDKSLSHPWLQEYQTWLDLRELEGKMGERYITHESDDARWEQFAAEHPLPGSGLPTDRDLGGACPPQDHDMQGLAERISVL

[2] = target: T2, FLAG-PKD2 WT (protein kinase D2, wild type) (human) (UniProt Q9BZL6); assay: co-IP; FLAG-PKD2 (WT or Y87F) precipitated with anti-FLAG M2 beads from lysates of transfected HEK293 cells stimulated with H2O2 (10 mM, 10 min), with or without pretreatment with PP2 (10 µM) or STI-571 (5 µM); lysis in 50 mM Tris pH 7.4, 150 mM NaCl, 15 mM EDTA, 1% NP-40; three washes with NENT150; blot for PKCδ
T2 sequence: T1 sequence

[3] = target: T3, FLAG-PKD2 Y87F (human) (UniProt Q9BZL6); assay: as above
T3 sequence: T1 sequence with Y87F

- binding [1]: binds
- binding [2]: binds
- binding [3]: binds
Substance: PKCδ (from UniProt Q05655 1-676) (enzyme)
